Measurements reported in PubChem BioAssay AID1224826 (NIAID, 2016)
This is an unselected part of about 17,000 deposited reagents. In the full data, about 1,110 (6.6%) are marked active. 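Active means lowered or raised reporter signal; replicate intensities are raw and not normalised per plate.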 Further read-outs or replicates are left out here.

- Purpose: 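Knock-downs that raise or lower Tnf reporter signal after endotoxin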 (primary screen)
- System: RAW264.7 G9 macrophages from mouse bearing reporters for p65 (GFP) and the Tnf promoter (mCherry)
- Reagents: siRNA pool against mouse genes, 100 nM
- Time to read-out: 16 h of LPS stimulation, after 2 days of siRNA transfection
- Treatment: bacterial lipopolysaccharide (Salmonella minnesota R595), 10 ng/ml
- Measured: 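Nuclear mCherry signal of the Tnf promoter reporter measured by imaging after background removal, scaled to each plate median and turned into robust z-scores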
- Scale: Tnf reporter robust z-score: higher = stronger Tnf promoter reporter signal after LPS
- Active means: 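Called active when robust z-score is at most -1.3, matching the median of the Tlr4 knock-down control, or over 3; control wells and wells with under 50 cells never active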
- Calls: active = Tnf reporter clearly lowered or raised; inactive = no clear change in Tnf reporter

Target gene	Tnf reporter robust z-score	fewer than 50 cells in well	activity call
Gpr107	0.52	enough cells in well	inactive
Btbd3	0.74	enough cells in well	inactive
Nfasc	-0.6	enough cells in well	inactive
Nrep	0.3	enough cells in well	inactive
Chordc1	0.92	enough cells in well	inactive
Ambp	-0.26	enough cells in well	inactive
Apod	0.23	enough cells in well	inactive
Otop2	0.74	enough cells in well	inactive
Zfp84	1.12	enough cells in well	inactive
Nes	-0.72	enough cells in well	inactive
Kcnip2	0.87	enough cells in well	inactive
Pde6a	1	enough cells in well	inactive
Heatr1	1.62	enough cells in well	inactive
Or2a12	4.09	enough cells in well	active
Oscar	0.94	enough cells in well	inactive
Hspa4l	-0.69	enough cells in well	inactive
Ssx2ip		fewer than 50 cells per well; well left out of calls	inactive
Tmem255a	0.06	enough cells in well	inactive
Mob4	1.23	enough cells in well	inactive
Fhl3	-0.55	enough cells in well	inactive
Oasl1	0.14	enough cells in well	inactive
Galnt11	1.06	enough cells in well	inactive
Prmt1	-0.66	enough cells in well	inactive
Cdk2	0.33	enough cells in well	inactive
Capsl	-0.57	enough cells in well	inactive
Adam24	0.45	enough cells in well	inactive
Nos3	-0.56	enough cells in well	inactive
Zbtb18	0.15	enough cells in well	inactive
Or5p59	-0.18	enough cells in well	inactive
Vmn1r179	0.83	enough cells in well	inactive
Tacc3	-1.07	enough cells in well	inactive
Slc72a1	0.59	enough cells in well	inactive
Srsf12	3.74	enough cells in well	active
Atxn7	-0.85	enough cells in well	inactive
Nipa2	2.32	enough cells in well	inactive
Psmc5		fewer than 50 cells per well; well left out of calls	inactive
Kcns1	0.09	enough cells in well	inactive
Psors1c2	-1.95	enough cells in well	active
Zfp513	1.62	enough cells in well	inactive
Rnf185	-0.9	enough cells in well	inactive
Itgb1bp1	0.72	enough cells in well	inactive
Sorbs3	-0.18	enough cells in well	inactive
Syt14	0.94	enough cells in well	inactive
Or7g33	-0.71	enough cells in well	inactive
Gm9801	1.9	enough cells in well	inactive
Me2	0.87	enough cells in well	inactive
Ifit2	-0.87	enough cells in well	inactive
Prxl2a	0.72	enough cells in well	inactive
Cct8	0.74	enough cells in well	inactive
Nr1h2	-1.96	enough cells in well	active
Tdp1	2.77	enough cells in well	inactive
Cnnm3	0.04	enough cells in well	inactive
Vmn1r192	1.84	enough cells in well	inactive
Crtap	-1.09	enough cells in well	inactive
Fbxw8	0.62	enough cells in well	inactive
Tbxa2r	-0.49	enough cells in well	inactive
Cma2	-0.42	enough cells in well	inactive
Neurod2	0.06	enough cells in well	inactive

Copied from the entries so far (7 entries):
Target gene	Tnf reporter robust z-score	fewer than 50 cells in well	activity call
Psmc5		fewer than 50 cells per well; well left out of calls	inactive
Kcns1	0.09	enough cells in well	inactive
Psors1c2	-1.95	enough cells in well	active
Zfp513	1.62	enough cells in well	inactive
Rnf185	-0.9	enough cells in well	inactive
Itgb1bp1	0.72	enough cells in well	inactive
Sorbs3	-0.18	enough cells in well	inactive
